The whole screen tested about 300,000 compounds, of which about 5,400 (1.8%) were called active. The inconclusive results got no clear call from the source; some entries with a clear call stand among them for comparison. Calls follow the shape of the full dose curve; tested in HEK293 cells. A potency beside an inconclusive call is a rough fit, not a confirmed value.
Test: qHTS for inhibitors of binding or entry into cells for Marburg Virus
Settings: Marburg virus pseudotyped entry inhibition, cell reporter; activity change, negative = inhibition: at 37.8 µM (top of the series) unless noted
For `CC(C)(C)n1nc2c(c1NC(=O)c1ccc([N+](=O)[O-])cc1)CS(=O)(=O)C2`, the “activity change, negative = inhibition” value was inactive: 16.7% [at 46.1 µM]. In the case of `COCCCNc1nc2c(c(=O)[nH]c(=O)n2C)n1CC(O)COc1ccc(Cl)cc1` (centres undefined), the “activity change, negative = inhibition” value is reported as inactive: 6.77% [at 46.1 µM]. For `CC(NS(=O)(=O)c1ccc(OCC(=O)NCc2ccncc2)cc1)c1ccccc1` (centres undefined), the Potency was active: 4.47 µM. For `CC1CCCC(NC(=O)CSC2CCCCC2)C1C` (centres undefined), the Potency was inconclusive: 35.5 µM [inhibitor, single point]. For `COc1ccc2cc(-c3ccccc3)c(=O)oc2c1`, the Potency was inconclusive: 35.5 µM [inhibitor, single point]. For `COCCCN1C(=O)C(=O)/C(=C(/O)c2ccc(S(=O)(=O)N3CCCCC3)cc2)C1c1ccc(O)cc1` (centres undefined), the “activity change, negative = inhibition” value was inactive: 4.01% [at 46.1 µM]. For `Cc1ccc(NC(NC(=O)c2cccs2)C(Cl)(Cl)Cl)cc1` (centres undefined), the Potency was inconclusive: 20 µM [inhibitor, partial curve, poor fit]. In the case of `O=[N+]([O-])c1cc(/C=N/Nc2nc3ccccc3[nH]2)c(O)cc1O`, the Potency is reported as active: 8.91 µM. For `CC(C)CCNC(=O)C(c1ccc(O)cc1)N(C(=O)C1COc2ccccc2O1)c1cccc(O)c1` (centres undefined), the Potency was inconclusive: 14.1 µM [inhibitor, partial curve, poor fit]. In the case of `O=S(=O)(c1ccccc1)n1nc(-c2ccc(Cl)cc2)nc1NCc1ccccc1`, the Potency is reported as inconclusive: 6.31 µM [activator, single point]. With `Cc1ccc(NC(=O)CN2C(=O)NC(C)(c3ccc4c(c3)OCO4)C2=O)cc1` (centres undefined) the Potency was inconclusive: 3.98 µM [inhibitor, single point]. For `COc1ccc(NC(=O)/C=C/c2cc(Br)ccc2OC)cc1`, the “activity change, negative = inhibition” value was inactive: 11.7%. For `CN(C)S(=O)(=O)c1cccc(NC(=O)c2ccc(COc3ccccc3)cc2)c1`, the Potency was active: 8.91 µM. With `COc1ccc(CCCC(=O)N/N=C\c2cccs2)cc1` the Potency was inconclusive: 3.16 µM [inhibitor, single point]. For `Nc1c(Cl)ncnc1N/N=C/c1ccccn1`, the Potency was inconclusive: 1.41 µM [inhibitor, full curve, poor fit]. With `c1ccc2c(c1)ccn2CCCN1CCCCC1` the Potency was inconclusive: 6.31 µM [activator, single point]. In the case of `O=C(NN=C1CCC(=NNC(=O)c2ccccn2)CC1)c1ccccn1`, the Potency is reported as inconclusive: 12.6 µM [inhibitor, single point]. With `O=C(O)CSc1nc(-c2ccccc2)nc2c1oc1ccccc12` the Potency was inconclusive: 16.4 µM [activator, single point]. With `O=C(Nc1ccc(OC(F)F)c(Cl)c1)c1ccccn1` the Potency was inconclusive: 29.1 µM [inhibitor, single point]. With `CCn1c(C)[n+](CCOC(C)=O)c2cc(Cl)c(Cl)cc21` the “activity change, negative = inhibition” value was inactive: -3.15%. With `Cc1ccc2nc(Nc3nc(-c4ccccc4)cc(=O)[nH]3)nc(C)c2c1` the Potency was inconclusive: 2.51 µM [inhibitor, partial curve, poor fit]. In the case of `CCOC(=O)/C=c1\s/c(=C\c2ccc(C)cc2)c(=O)n1CC(=O)NCc1ccco1`, the Potency is reported as inconclusive: 0.355 µM [activator, partial curve, poor fit]. In the case of `OCC1(CCCc2ccccc2)CCN(Cc2ccc(F)cc2)CC1`, the Potency is reported as inconclusive: 35.5 µM [inhibitor, partial curve, poor fit]. With `CCCNC(=O)c1cccc(Br)c1` the activity change, negative = inhibition was inconclusive: 0.264% [activator] [at 46.1 µM]. With `COc1ccc(C)cc1NC(=O)Cn1cc(S(=O)(=O)N2CCC(C)CC2)c2ccccc2c1=O` the Potency was inconclusive: 35.5 µM [inhibitor, single point]. With `Cc1cc(C)cc(OCC(=O)N2CCC(c3nc4ccccc4o3)CC2)c1` the “activity change, negative = inhibition” value was inactive: -2.92% [at 46.1 µM]. For `COc1ccc(N(C(=O)Cc2cccs2)C(C(=O)NC2CCCC2)c2ccncc2)cc1OC` (centres undefined), the “activity change, negative = inhibition” value was inactive: 9.51% [at 46.1 µM]. In the case of `Brc1ccc(CN2CCNCC2)s1`, the Potency is reported as inconclusive: 11.2 µM [inhibitor, single point]. For `CCCCNC(=O)C(CC)Sc1nc2sc(C(=O)OC)c(C)c2c(=O)n1N` (centres undefined), the Potency was inconclusive: 29.1 µM [inhibitor, single point]. In the case of `COC(=O)c1ccc(/C=C2/SC(=S)N(CCC(=O)N3CCOCC3)C2=O)cc1`, the Potency is reported as inconclusive: 3.98 µM [inhibitor, single point]. With `COC1CCC2C(C(=O)O[C@@H]2[C@@H]2C3=C(CCN2C)CC2=C(C3)OCO2)C1OC` (some centres undefined) the Potency was inconclusive: 11.2 µM [inhibitor, partial curve, poor fit]. For `CCCC(=O)NC(c1ccccc1Cl)c1c(O)ccc2ccccc12` (centres undefined), the “activity change, negative = inhibition” value was inactive: -8.29%. With `Cc1cc(NC(=O)NC(=O)c2ccccc2NC(=O)CN)ccc1Oc1ncc(Br)cn1` the Potency was inconclusive: 1.41 µM [inhibitor, partial curve, poor fit]. In the case of `CN(C)c1ccc(/C=C2\SC(=O)N(CCc3nnc(N)s3)C2=O)cc1`, the Potency is reported as active: 1.12 µM. With `CCCCCCNc1c([N+](=O)[O-])cc(C)cc1[N+](=O)[O-]` the “activity change, negative = inhibition” value was inactive: -2.31%. With `CC(=O)c1ccc(N2CCC(c3cc(-c4ccc(Cl)cc4Cl)n[nH]3)CC2)c([N+](=O)[O-])c1` the Potency was inconclusive: 3.26 µM [inhibitor, full curve]. In the case of `Cc1c(-c2ccccc2)[n+](=O)c(-c2ccco2)c(C)n1[O-]`, the Potency is reported as inconclusive: 0.116 µM [activator, single point]. In the case of `COc1cccc(NC(=S)NCc2cccs2)c1`, the Potency is reported as inconclusive: 3.55 µM [activator, full curve, poor fit]. In the case of `CC1(C)CC(=O)c2cc(-c3nc(-c4ccc(F)cc4)cs3)c(=O)[nH]c2C1`, the “activity change, negative = inhibition” value is reported as inactive: -21.9% [at 46.1 µM]. With `C[C@]1(C(=O)NCCN2CCOCC2)C=C[C@@H](Cc2ccccc2)N1C(=O)c1ccccc1` the “activity change, negative = inhibition” value was inactive: -3.55%. In the case of `COc1ccc(S(=O)(=O)N2CCN(CCc3ccccc3)CC2)c(OC)c1`, the Potency is reported as inconclusive: 7.94 µM [inhibitor, partial curve, poor fit]. For `CCN(C(=O)C(NS(=O)(=O)c1ccc(Br)s1)c1ccccc1)c1ccc(C)c(C)c1` (centres undefined), the Potency was inconclusive: 14.1 µM [inhibitor, single point]. In the case of `COc1ccc(C(CCO)NC(=O)c2cccs2)cc1OC` (centres undefined), the “activity change, negative = inhibition” value is reported as inactive: 29.4% [at 46.1 µM]. With `Cc1ccc(C(=O)OCc2nc(N)nc(Nc3ccccc3C)n2)cc1` the Potency was inconclusive: 18.4 µM [inhibitor, partial curve, poor fit].

— PubChem BioAssay AID540276 (National Center for Advancing Translational Sciences (NCATS), 2011)
% is scaled to controls: 0 for no effect and ±100 for the full control effect; potency is read from the fitted curve at half-maximal effect.
